Test results from PubChem BioAssay AID504834 (National Center for Advancing Translational Sciences (NCATS), 2011).
The whole screen tested about 320,000 compounds, of which about 22,000 (6.9%) were called active. The shares of active, inactive and inconclusive entries below differ from those in the screen. The call rests on the fitted dose curve; in most records, active means well fitted inhibition curve with a large enough effect; inconclusive means small, poorly fitted or top-dose-only effect, or another doubt; inactive means no such curve, though single readings can be large or run the other way. Potencies of inconclusive entries are doubtful fits and often do not repeat.

Assay: Primary qHTS for delayed death inhibitors of the malarial parasite plastid, 96 hour incubation
Conditions: P. falciparum luciferase reporter growth; series mostly up to 28.7 µM; activity change, negative = inhibition: at the top concentration
Outline: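 Plates of compound plus infected erythrocytes (2% hematocrit, 0.05% parasitemia final) incubate 96 hours, 37 C, 5% CO2. Detection reagent added; reduced luminescence from the parasites' luciferase reporter flags inhibition.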
On the % scale 0 is the no-effect control and ±100 the full control effect; potency means the concentration at half of the fitted maximal effect.

**Q.** Which “activity change, negative = inhibition” value does the source give for `O=C(Nc1ccnn1C1CCN(C2CCCC2)CC1)c1ccccc1` here?
**A.** Its value is inactive: 10.5%.

**Q.** With `CN(C)CCCN(C(=O)c1ccc(S(=O)(=O)N2CCc3ccccc32)cc1)c1nc2c(Cl)cccc2s1` as the molecule, how does the Potency read?
**A.** The Potency was inconclusive: 10.4 µM [inhibitor, single point].

**Q.** With `O=C1NC(=O)C2(CCCCCCCCCCC2)N1` as the molecule, how does the “activity change, negative = inhibition” value read?
**A.** Its value is inactive: 39.2%.

**Q.** Which Potency does the source give for `COc1ccc(C(=O)C(CCCCC(CN(C)C)C(=O)c2ccc(OC)cc2)CN(C)C)cc1` (centres undefined) here?
**A.** The Potency was active: 9.28 µM.

**Q.** With `COc1ccccc1NC(=O)Cc1c(F)cccc1Cl` as the molecule, how does the Potency read?
**A.** Its Potency is inconclusive: 10.4 µM [inhibitor, single point].

**Q.** Which Potency does the source give for `O=C1c2ccccc2C(=O)N1CCc1c[nH]c2ccc(O)cc12` here?
**A.** Its Potency is active: 3.29 µM.

**Q.** For `CCOC(=O)NC1(Nc2cccc(Cl)c2)Oc2ccccc2O1`, which Potency is on record?
**A.** The Potency was inconclusive: 13.1 µM [inhibitor, partial curve, poor fit].

**Q.** For `CN1CCN(S(=O)(=O)c2ccc(Nc3ccc(F)cc3)c([N+](=O)[O-])c2)CC1`, which “activity change, negative = inhibition” value is on record?
**A.** Its value is inactive: -20.9%.

**Q.** For `COc1ccc(OCC(O)CN(C)C(=O)C(C)Oc2ccccc2)cc1` (centres undefined), which Potency is on record?
**A.** The Potency was inconclusive: 14.7 µM [inhibitor, single point].

**Q.** For `O=C(NCCN1CCOCC1)c1ccc(Cl)c(S(=O)(=O)N2CCOCC2)c1`, which Potency is on record?
**A.** The Potency was inconclusive: 1.65 µM [inhibitor, full curve].

**Q.** With `O=C(NCc1nnc(SCC(=O)N2CCCc3ccccc32)n1-c1ccccc1)c1cccc2ccccc12` as the molecule, how does the Potency read?
**A.** The Potency was inconclusive: 10.4 µM [inhibitor, partial curve, poor fit].

**Q.** With `COc1ccc(N(C2CSC2)S(=O)(=O)c2ccccc2)cc1` as the molecule, how does the Potency read?
**A.** Its Potency is inconclusive: 11.7 µM [inhibitor, partial curve, poor fit].

**Q.** Which Potency does the source give for `CN1c2ccccc2C(=O)NC1c1ccc([N+](=O)[O-])s1` (centres undefined) here?
**A.** The Potency was inconclusive: 18.5 µM [inhibitor, single point].

**Q.** Which Potency does the source give for `Cc1ccc(-c2nnn(CC(=O)N(c3ccccc3F)C(CC(C)C)C(=O)NCC3CCCO3)n2)cc1` (centres undefined) here?
**A.** The Potency was inconclusive: 18.5 µM [inhibitor, single point].

**Q.** With `O=C(/C=C/c1cccc(Br)c1)NC1CCN(Cc2ccccc2)CC1` as the molecule, how does the Potency read?
**A.** The Potency was inconclusive: 10.4 µM [inhibitor, single point].

**Q.** With `COc1ccc(C(=O)N2CCCC(CCC(=O)NCc3ccccc3F)C2)c(OC)n1` (centres undefined) as the molecule, how does the Potency read?
**A.** Its Potency is inconclusive: 10.4 µM [inhibitor, partial curve, poor fit].

**Q.** With `CNC(=S)N/N=C/c1cc(Br)c(OCc2ccncc2)c(OC)c1` as the molecule, how does the Potency read?
**A.** The Potency was inconclusive: 11.7 µM [inhibitor, partial curve, poor fit].

**Q.** With `CNC(=S)N1N=C(c2cccs2)CC1c1ccc(F)cc1` (centres undefined) as the molecule, how does the “activity change, negative = inhibition” value read?
**A.** The value was inactive: 39.6%.

**Q.** With `COc1ccc(CCNC(=O)COC(=O)Cc2cccc3ccccc23)cc1` as the molecule, how does the Potency read?
**A.** The Potency was inconclusive: 18.5 µM [inhibitor, single point].

**Q.** With `CCOc1ccc(CC(=O)N/N=C(\C)c2cccnc2)cc1OCC` as the molecule, how does the “activity change, negative = inhibition” value read?
**A.** Its value is inactive: 0%.

**Q.** Which “activity change, negative = inhibition” value does the source give for `CC(C)CC(=O)Nc1ccc(S(=O)(=O)N2CC3CC(C2)c2cccc(=O)n2C3)cc1` (centres undefined) here?
**A.** Its value is inactive: -17%.

**Q.** For `CN1CCN(C(=O)C2CCC(CNS(=O)(=O)c3cccc4cccnc34)CC2)CC1` (centres undefined), which Potency is on record?
**A.** Its Potency is inconclusive: 18.5 µM [inhibitor, single point].

**Q.** With `COc1ccccc1-c1c(C)nn2c(N)c(-c3ccc(Cl)cc3)cnc12` as the molecule, how does the Potency read?
**A.** The Potency was inconclusive: 4.15 µM [inhibitor, partial curve].

**Q.** For `COC(=O)c1ccc(NC(=O)C(=O)N2CCN(C(=S)Nc3ccccc3OC)CC2)cc1`, which Potency is on record?
**A.** Its Potency is inconclusive: 18.5 µM [inhibitor, single point].

**Q.** With `N#CCCN(C(=O)COC(=O)c1ccc(S(=O)(=O)N2CCCC2)cc1)c1cccc(Cl)c1` as the molecule, how does the Potency read?
**A.** The Potency was inconclusive: 13.1 µM [inhibitor, single point].

**Q.** With `OC(CN1CCN(C(c2ccccc2)c2ccccc2)CC1)c1ccccc1` (centres undefined) as the molecule, how does the Potency read?
**A.** Its Potency is inconclusive: 10.4 µM [inhibitor, single point].

**Q.** Which Potency does the source give for `Nn1c(C2CCC2)nc2cc(Cl)ccc2c1=O` here?
**A.** Its Potency is inconclusive: 13.1 µM [inhibitor, single point].

**Q.** Which Potency does the source give for `CC(C)c1nc(SCC(=O)Nc2nc3c(s2)CCCC3)c2ccccc2n1` here?
**A.** Its Potency is inconclusive: 11.7 µM [inhibitor, single point].

**Q.** With `CCN1CCN(C(=O)C2CCN(S(=O)(=O)c3ccc(Br)cc3)CC2)CC1` as the molecule, how does the Potency read?
**A.** The Potency was inconclusive: 13.1 µM [inhibitor, single point].

**Q.** Which Potency does the source give for `CCOc1cc(C(=O)N/N=C/C(Br)=C/c2ccccc2)cc(OCC)c1OCC` here?
**A.** The Potency was inconclusive: 7.38 µM [inhibitor, partial curve, poor fit].

**Q.** Which “activity change, negative = inhibition” value does the source give for `O=C(Cn1ccc([N+](=O)[O-])n1)N1CCCc2ccccc21` here?
**A.** Its value is inactive: 196%.

**Q.** Which Potency does the source give for `Cc1cccc(C(=O)Nc2cc(S(=O)(=O)N3CCOCC3)ccc2N2CCCCC2)c1` here?
**A.** Its Potency is inconclusive: 4.65 µM [inhibitor, partial curve, poor fit].

**Q.** For `CCCCNC(=O)CS(=O)Cc1nc(-c2ccc(C)cc2)oc1C` (centres undefined), which “activity change, negative = inhibition” value is on record?
**A.** Its value is inactive: -15.5%.

**Q.** With `CCOC(=O)c1cccc(NC(=O)/C=C/c2ccc([N+](=O)[O-])cc2)c1` as the molecule, how does the Potency read?
**A.** The Potency was inconclusive: 10.4 µM [inhibitor, single point].

**Q.** For `O=C(NCc1cccs1)c1ccc(CS(=O)Cc2cccc(Cl)c2)o1` (centres undefined), which “activity change, negative = inhibition” value is on record?
**A.** Its value is inactive: 14.1%.

**Q.** With `CC(C)C(C(=O)NCc1ccco1)N(Cc1ccco1)C(=O)CNS(=O)(=O)c1ccc(F)cc1` (centres undefined) as the molecule, how does the Potency read?
**A.** The Potency was inconclusive: 18.5 µM [inhibitor, single point].

**Q.** For `COc1ccc(C2CCCN2C(=S)Nc2cccc(C)c2C)cc1OC` (centres undefined), which Potency is on record?
**A.** The Potency was inconclusive: 18.5 µM [inhibitor, single point].

**Q.** For `COc1ccc(CCN(Cc2ccccn2)C(=S)Nc2cccc(C)c2)cc1OC`, which “activity change, negative = inhibition” value is on record?
**A.** The value was inactive: -24%.

**Q.** Which Potency does the source give for `CN(C(=O)c1ccc(NC(=O)Cc2cccc(NC(=O)C3CCCN(C(=O)C4CC4)C3)c2)cc1)C1CCCC1` (centres undefined) here?
**A.** Its Potency is inconclusive: 9.28 µM [inhibitor, partial curve, poor fit].

**Q.** Which Potency does the source give for `O=C(CCNC(=O)c1ccc(Br)cc1)Nc1ccccc1N1CCCCC1` here?
**A.** Its Potency is inconclusive: 14.7 µM [inhibitor, single point].

**Q.** For `CC(=O)c1cccc(N(CC(=O)NC2CCCCC2)C(=O)CCC(=O)Nc2nc(C)cs2)c1`, which Potency is on record?
**A.** Its Potency is inconclusive: 0.586 µM [inhibitor, full curve, poor fit].

**Q.** For `COc1ccccc1Nc1nc(-c2cccc([N+](=O)[O-])c2)nc2ccccc12`, which Potency is on record?
**A.** The Potency was inconclusive: 11.7 µM [inhibitor, single point].

**Q.** For `COc1ccccc1/C=N/Nc1cc(C)nc2ccc(C)cc12`, which Potency is on record?
**A.** Its Potency is inconclusive: 11.7 µM [inhibitor, partial curve, poor fit].

**Q.** Which Potency does the source give for `COc1cccc(-n2c(=S)sc3c(=O)n(-c4ccccc4OC)c(=S)[nH]c32)c1` here?
**A.** The Potency was inconclusive: 13.1 µM [inhibitor, single point].

**Q.** Which Potency does the source give for `CC(C)(C)c1ccc(CCC(CC(=O)O)CC(=O)O)cc1` here?
**A.** Its Potency is inconclusive: 2.94 µM [inhibitor, partial curve, poor fit].

**Q.** Which Potency does the source give for `COc1ccc(Cn2c(C)nc3ccc([N+](=O)[O-])cc3c2=O)cc1` here?
**A.** The Potency was inconclusive: 10.4 µM [inhibitor, single point].

**Q.** For `O=c1cc(CNc2cc(Cl)ccc2Cl)nc2sccn12`, which “activity change, negative = inhibition” value is on record?
**A.** Its value is inactive: 10.2%.

**Q.** Which Potency does the source give for `O=C(CCN1CCN(CCO)CC1)Nc1ccc(F)c(F)c1` here?
**A.** The Potency was inconclusive: 10.4 µM [inhibitor, partial curve, poor fit].

**Q.** With `COC(=O)c1ccc(CSc2nc3c(c(=O)n2-c2ccccc2)SCC3)o1` as the molecule, how does the Potency read?
**A.** Its Potency is inconclusive: 0.0185 µM [inhibitor, full curve, poor fit].

**Q.** For `Cc1ccc(S(=O)(=O)N(C)c2ccc(C(=O)N3CCN(Cc4ccc5c(c4)OCO5)CC3)cc2)cc1`, which Potency is on record?
**A.** The Potency was inconclusive: 10.4 µM [inhibitor, single point].

**Q.** For `O=C(c1cccs1)N1CCN(c2nc3ccc([N+](=O)[O-])cc3s2)CC1`, which “activity change, negative = inhibition” value is on record?
**A.** Its value is inactive: -0.649%.

**Q.** For `COc1ccc(C(=O)c2coc3ccc(O)c(CN4CCCC4)c23)cc1`, which Potency is on record?
**A.** Its Potency is inconclusive: 9.28 µM [inhibitor, single point].

**Q.** Which Potency does the source give for `COc1ccc(CCN2CC(C(=O)NCCc3ccc(C(F)(F)F)cc3)CCC2=O)cc1` (centres undefined) here?
**A.** The Potency was inconclusive: 13.1 µM [inhibitor, single point].

**Q.** With `Cc1nn(C2CCOC(C)(C)C2)c2c1C(c1ccc(OC(C)C)cc1)SCC(=O)N2` (centres undefined) as the molecule, how does the Potency read?
**A.** Its Potency is inconclusive: 1.65 µM [inhibitor, single point].

**Q.** With `Cc1ccc2c(c1)sc1nc(=O)n(-c3cccc(Cl)c3)c(=O)n12` as the molecule, how does the “activity change, negative = inhibition” value read?
**A.** The value was inactive: 160%.

**Q.** With `COc1ccc(-c2noc(C3CCCN(C(=O)Nc4ccccc4F)C3)n2)cc1` (centres undefined) as the molecule, how does the Potency read?
**A.** The Potency was inconclusive: 16.5 µM [inhibitor, single point].

**Q.** For `COc1ccc(C2=NN(c3nc(-c4ccccc4)c(CC(=O)O)s3)C(c3ccco3)C2)cc1` (centres undefined), which Potency is on record?
**A.** Its Potency is inconclusive: 18.5 µM [inhibitor, single point].

**Q.** For `Cc1ccc(CNC(=O)CCCn2c(=O)c3ccccc3n(CC(=O)NCc3ccco3)c2=O)cc1`, which Potency is on record?
**A.** Its Potency is inconclusive: 6.57 µM [inhibitor, partial curve, poor fit].

**Q.** For `Cc1ccc(S(=O)(=O)c2ccc(Cl)cc2)cc1S(=O)(=O)N(C)CC(=O)O`, which “activity change, negative = inhibition” value is on record?
**A.** Its value is inactive: -3.89%.

**Q.** With `CCNC(=S)N/N=C/c1ccc(OCC(=O)Nc2ccc(OC)cc2)c(OC)c1` as the molecule, how does the Potency read?
**A.** The Potency was inconclusive: 18.5 µM [inhibitor, single point].

**Q.** With `CC(C)C12CCC(C(=O)O)C(C1)C(=O)O2` (centres undefined) as the molecule, how does the Potency read?
**A.** Its Potency is inconclusive: 1.04 µM [inhibitor, partial curve].

**Q.** For `Cc1cccc(-n2c(SCc3ccc([N+](=O)[O-])cc3)nnc2-c2c[nH]c3ccccc23)c1`, which Potency is on record?
**A.** Its Potency is inconclusive: 2.62 µM [inhibitor, full curve, poor fit].

**Q.** With `Cc1ccc(S(=O)(=O)Cc2ccc(C(=O)NCc3cccs3)o2)cc1` as the molecule, how does the Potency read?
**A.** The Potency was active: 3.7 µM.

**Q.** With `COc1ccc(C(=O)N2CCC(C(=O)Nc3ccccc3OC)CC2)cc1` as the molecule, how does the “activity change, negative = inhibition” value read?
**A.** The value was inactive: -1.46%.
